Values of other authors, collected in patent US20140314676A1, “METHODS OF TREATMENT WITH DEFERIPRONE” (APOTEX TECHNOLOGIES INC., priority 2011, published 2014).
Read-outs that look alike come from different tables or passages of the source. At least one compound was matched to its structure with a doubt left.

Key:
[1] = system: patients with myocardial infarction; conditions: cited from earlier work
cardiopulmonary bypass = conditions: pretreatment prior to cardiopulmonary bypass; cited from earlier work

## CC(=O)N(O)CCCCCNC(=O)CCC(=O)N(O)CCCCCNC(=O)CCC(=O)N(O)CCCCCN [deferoxamine]
[1]
  Effect on Troponin-1: no significant effect
  Effect on creatinine kinase: no significant effect
  Effect on infarct size: no significant effect
  Reactive oxygen species (ROS) (F2-isoprostane): reduce
[1]; listed as DFO
  Reactive oxygen species (ROS) (F2-isoprostane): effective in reducing
Cardiopulmonary bypass
  Free-radical mediated lipid damage: lowered
  Myocardial performance: improved
  White blood cell activation: lowered
